These are yes or no findings as the source states them, for the method shown. Binding seen in cells or lysates may run through a third protein. Some entries that bind do so weakly or less than the wild type. Where a sequence is shown, tags or fusion partners need not be part of it. Each block holds one molecule with its values, some of them ahead of it.
Experiments:
[1] = molecular target: T1, SBSPON tagged with 3×Flag (pcDNA3.1-3×Flag-SBSPON) (human) (UniProt Q8IVN8); assay: co-IP; cell lysates immunoprecipitated with anti-Flag (SBSPON) or anti-Myc (HSPA5) antibodies, then immunoblotting; NP-40 lysates, protein A/G agarose beads
T1 sequence (chain, N-glycosylation at Asn227): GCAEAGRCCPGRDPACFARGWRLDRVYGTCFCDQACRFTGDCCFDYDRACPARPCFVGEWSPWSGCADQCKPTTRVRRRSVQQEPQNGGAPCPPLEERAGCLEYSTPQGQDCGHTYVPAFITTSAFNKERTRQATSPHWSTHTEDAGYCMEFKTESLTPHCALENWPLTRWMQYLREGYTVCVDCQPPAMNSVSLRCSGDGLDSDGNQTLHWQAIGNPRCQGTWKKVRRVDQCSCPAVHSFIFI

Chains of the proteins cited; added tags and fusions are not shown. Residues count along the entry.
UniProt P11021, residues 19-654: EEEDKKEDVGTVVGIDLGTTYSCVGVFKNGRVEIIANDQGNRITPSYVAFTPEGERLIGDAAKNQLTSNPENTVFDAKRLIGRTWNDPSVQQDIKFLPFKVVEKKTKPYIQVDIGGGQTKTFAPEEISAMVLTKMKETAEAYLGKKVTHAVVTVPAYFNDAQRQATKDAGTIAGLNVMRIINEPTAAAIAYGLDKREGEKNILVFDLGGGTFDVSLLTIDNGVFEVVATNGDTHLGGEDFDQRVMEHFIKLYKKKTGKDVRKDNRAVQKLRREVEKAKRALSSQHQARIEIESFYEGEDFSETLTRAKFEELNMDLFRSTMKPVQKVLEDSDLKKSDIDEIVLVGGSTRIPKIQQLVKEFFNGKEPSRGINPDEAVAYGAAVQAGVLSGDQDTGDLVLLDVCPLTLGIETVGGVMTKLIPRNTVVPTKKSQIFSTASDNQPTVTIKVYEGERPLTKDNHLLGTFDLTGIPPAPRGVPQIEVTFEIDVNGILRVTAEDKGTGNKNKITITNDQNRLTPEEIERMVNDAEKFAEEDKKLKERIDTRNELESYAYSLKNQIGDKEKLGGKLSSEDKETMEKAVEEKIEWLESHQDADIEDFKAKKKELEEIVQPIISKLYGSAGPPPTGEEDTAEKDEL

[2] = molecular target: T2, SBSPON-3×Flag (Somatomedin B and Thrombospondin Type 1 Domain Containing), stably overexpressed by lentivirus (human) (UniProt Q8IVN8); assay: co-IP; bladder cancer cells untreated or exposed to DDP or TM (ER stress); the interaction is enhanced under stress; the method is not named for this panel
T2 sequence (chain, N-glycosylation at Asn227): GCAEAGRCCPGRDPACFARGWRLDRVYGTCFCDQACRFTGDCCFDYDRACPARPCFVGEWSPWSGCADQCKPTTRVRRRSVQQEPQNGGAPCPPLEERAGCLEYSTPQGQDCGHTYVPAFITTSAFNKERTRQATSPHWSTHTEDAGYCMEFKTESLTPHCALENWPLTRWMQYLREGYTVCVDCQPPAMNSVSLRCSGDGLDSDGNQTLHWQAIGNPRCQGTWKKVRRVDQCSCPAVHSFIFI

[3] = molecular target: HSPA5 tagged with Myc (pcDNA3.1) (UniProt P11021); assay: co-IP; cell lysates immunoprecipitated with anti-Flag (SBSPON) or anti-Myc (HSPA5) antibodies, then immunoblotting; NP-40 lysates, protein A/G agarose beads

binding [1]: binds
Molecule: HSPA5 tagged with Myc (pcDNA3.1) (from UniProt P11021 19-654)

binding [2]: binds
Molecule: HSPA5, endogenous in bladder cancer cells (from UniProt P11021 19-654)

binding [3]: binds
B1: SBSPON tagged with 3×Flag (pcDNA3.1-3×Flag-SBSPON) (protein, UniProt Q8IVN8 21-264)
chain: GCAEAGRCCPGRDPACFARGWRLDRVYGTCFCDQACRFTGDCCFDYDRACPARPCFVGEWSPWSGCADQCKPTTRVRRRSVQQEPQNGGAPCPPLEERAGCLEYSTPQGQDCGHTYVPAFITTSAFNKERTRQATSPHWSTHTEDAGYCMEFKTESLTPHCALENWPLTRWMQYLREGYTVCVDCQPPAMNSVSLRCSGDGLDSDGNQTLHWQAIGNPRCQGTWKKVRRVDQCSCPAVHSFIFI
modifications: N-glycosylation at Asn227

Reference: article PMC12320502
